## Library screening results

By UniProt entry, the sequences of proteins in these tests, tags left out.
UniProt E9BF75, entry or part of it: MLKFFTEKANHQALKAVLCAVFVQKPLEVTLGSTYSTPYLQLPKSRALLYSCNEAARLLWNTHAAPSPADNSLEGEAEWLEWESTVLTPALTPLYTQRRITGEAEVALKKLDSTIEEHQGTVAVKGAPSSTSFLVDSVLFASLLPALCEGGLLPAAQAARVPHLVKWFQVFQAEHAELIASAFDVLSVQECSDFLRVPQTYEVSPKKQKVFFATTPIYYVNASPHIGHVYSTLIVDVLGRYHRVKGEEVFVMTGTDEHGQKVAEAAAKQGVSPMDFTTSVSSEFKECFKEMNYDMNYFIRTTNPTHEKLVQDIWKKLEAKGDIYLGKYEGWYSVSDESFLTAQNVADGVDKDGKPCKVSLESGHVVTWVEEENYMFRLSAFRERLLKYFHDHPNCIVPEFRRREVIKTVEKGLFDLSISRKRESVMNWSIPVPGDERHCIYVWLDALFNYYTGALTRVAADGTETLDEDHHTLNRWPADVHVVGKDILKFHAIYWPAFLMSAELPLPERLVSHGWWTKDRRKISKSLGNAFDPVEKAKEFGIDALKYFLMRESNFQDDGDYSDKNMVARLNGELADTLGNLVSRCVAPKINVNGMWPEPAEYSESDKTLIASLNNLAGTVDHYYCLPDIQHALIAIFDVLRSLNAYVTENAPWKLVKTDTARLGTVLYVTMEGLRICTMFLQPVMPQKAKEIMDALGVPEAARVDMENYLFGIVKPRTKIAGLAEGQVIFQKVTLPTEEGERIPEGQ

All values are in %.
The record does not define 0% and 100%; most values in the screen are far below 50% and negative numbers occur (in some assays of this library far below -100).
Compounds were drawn at random from those tested, without regard to their results.
A dash means the value is not listed here; it may have been measured.

Mtb heat-shock: 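Assay on Mycobacterium tuberculosis, filed only as a heat shock assay from Cornell; the read-out is not stated. The concentration is filed as 10 mM, unlikely as a test dose, so the dose is not known. Higher reads as stronger inhibition (inferred: compounds with an IC50 in retests scored well above the rest). Size under these conditions: about 69,000 compounds, about 930 of them at 50% or above in at least one test.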
LdMetRS: 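Methionyl-tRNA synthetase (putative), Leishmania donovani (UniProt E9BF75). Primary screen of methionyl-tRNA synthetase; the read-out is not stated. The test concentration is not given. The values are filed as inhibition. Of about 68,000 compounds tested this way, about 24 (0.035%) reached 50% or more in at least one test.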

compound,Mtb heat-shock,LdMetRS
c1ccc(OCCN2CCCC(c3noc(C4CC4)n3)C2)cc1 (stereo not shown),9.972,8.78
COc1cccc(NC(=O)CN(C(C)C)C2CC2)c1,-26.58,11.85
CC(C)c1nccn1CCC(=O)N1CCCCC1c1ccn[nH]1 (stereo not shown),-2.449,1.869
Cc1ccc(N2CCCC(NC(=O)Cc3csc(C)n3)C2=O)cc1 (stereo not shown),17.82,7.796
CCCC(C(=O)NC1CCN(S(C)(=O)=O)CC1)n1cccc1 (stereo not shown),-2.413,12.63
O=C(O)C(F)(F)F.O=C(O)C(F)(F)F.[H][C@@]12CCCO[C@]1([H])[C@H](Oc1ncccc1F)CN2Cc1ccccn1,-39.2,-
Cc1cc(C)c2c(N3CCCN(C(=O)C4CCC4)CC3)ncnc2n1,-11.03,22.12
O=C(CCCOc1ccccc1)N1CCCC(n2cncn2)C1 (stereo not shown),1.416,10.22
O=c1cc(CN2CCCC2)nc2n1CCCN(S(=O)(=O)C1CC1)C2,7.98,10.44
[H][C@]12CN(CC3CC3)C(=O)[C@@]1([H])CN(c1cnccn1)C2,15.81,-
COCc1ncn2c1CN(S(=O)(=O)c1cccs1)CCC2,-23.49,5.185
CN(C)C(=O)COCc1cncc2c1CCN(Cc1cnn(C)c1)C2.O=C(O)C(F)(F)F.O=C(O)C(F)(F)F,-17.35,-
Cc1cc(C)n(C2CCCN(C(=O)c3cn4cccnc4n3)C2)n1 (stereo not shown),-29.23,17.66
O=C(Nc1cccc2c1CCCC2)c1cccc(CN2CC[C@H](O)C2)c1,-3.598,10.05
CN(C)CC(=O)NC1CC(=O)N(CCc2ccccc2)C1 (stereo not shown),3.954,6.316
CCOc1ccccc1CC(=O)N1C[C@@H](C(=O)O)[C@H](c2ccncc2)C1,-35.4,-1.558
Cl.Clc1ccccc1CN1CCc2nc(C3CCNCC3)ncc2C1,28.57,-
Cn1c(C(=O)NCC2(N)CCCC2)cc2ccccc21,-9.781,3.611
COc1ccccc1[C@@H]1CN(C(=O)c2csc(C)n2)C[C@H]1C(=O)O,-0.79,19.47
Cc1nc(C2CCCN2CCCS(=O)(=O)N(C)C)no1 (stereo not shown),0.8919,7.143
Cc1nc(CCNC(=O)C(N)c2c(C)n[nH]c2C)sc1C (stereo not shown),7.171,11.04
O=C(c1ccc2c(c1)COC2)N1CCN(CCO)CC1,-11.02,10.42
CCOC(=O)NCCNC(=O)c1cc2ccccc2nc1N1CCCC1,-1.486,7.796
N#Cc1ccc(C2CC(=O)Nc3c2cnn3C2CCCC2)cc1 (stereo not shown),5.264,5.854
Cc1cccc(-c2nc(CN(Cc3cccs3)CC3CCCO3)no2)c1 (stereo not shown),-6.432,20.83
c1ccc2[nH]c(C3CCN(Cc4nnc(C5CC5)o4)CC3)nc2c1,-20.44,18.66
CC(NC(=O)Cn1cccnc1=O)c1ccc(C(F)(F)F)cc1 (stereo not shown),-16.38,2.406
COc1ccccc1Cc1nnc(SCCS(C)(=O)=O)o1,-12.55,11.19
Cc1nc2ccccc2nc1CN1CCc2c(nc(C3CC3)n2C)C1,6.15,16.13
CCc1noc(CN2CCN(C(=O)OC(C)(C)C)C(C)C2)n1 (stereo not shown),-23.29,4.19
COCC1CN(Cc2ccc(OC)cc2)Cc2nnn(CC3CC3)c21 (stereo not shown),-,11.83
CNc1ncc(C(=O)N[C@H]2CN(CCCSC)C[C@@H]2C2CC2)cn1,-15.14,1.577
O=S(=O)(NCC1COc2ccccc2C1)N1CCCCC1 (stereo not shown),-7.808,7.902
Cc1ccc(NC2CCN(C(=O)CCc3ccco3)CC2)nn1,40.04,3.492
CCc1nc(CC)n(CC(=O)N(C)CC(F)(F)F)n1,1.919,9.89
O=C(O)C(F)(F)F.[H][C@@]12CN(C(=O)COC)CCC[C@]1(C(=O)N(C)C)CN(c1ccccn1)C2,4.234,-
COCC1c2c(cnn2CC2CC2)CCN1Cc1cc(C)on1 (stereo not shown),-,12.33
O=C(O)C(F)(F)F.O=C(O)C(F)(F)F.[H][C@@]12CN(Cc3ccsc3)C[C@]1([H])OCCN2CC1CCCO1 (stereo partly shown),-21.3,-
CNc1cncc(C2CCCN2C(=O)Cn2ccnc2C)n1 (stereo not shown),-8.572,13.08
CC1CCN(C(=O)CN2CC(c3nc(C4CC4)no3)C2)CC1.O=C(O)C(=O)O,-12.83,-
O=C1NCC[C@]12CN(Cc1cccnc1)C[C@H]2c1ccccc1,-,15.75
CCS(=O)(=O)N1CCc2ccc(NC(=O)NC(C)(C)C)cc21,10.46,10.14
CN(Cc1ccsc1)C(=O)Nc1ccc(S(C)(=O)=O)cc1,-20.27,17.18
CN1CCN(C2COC3(CCN(Cc4ccc(F)cc4)CC3)C2)CC1 (stereo not shown),-,12.44
CCc1nc(CNC(=O)Nc2ccc(C(=O)NC)cc2C)cs1,-1.737,17.56
Cc1cccc2cc(C(=O)N3CCSCC3)n(C)c12,-5.228,-
c1cc(CNCC2CNc3ccnn3C2)cc(OC2CCCC2)n1 (stereo not shown),6.505,26.78
CC(C)c1nn(C)c(N(C)C)c1CNCc1ccc2c(c1)OCO2,-5.545,13.39
O=C(NCc1cccc(N2CCCCC2=O)c1)[C@@H](O)c1ccccc1,22.2,9.966
Cc1cc(C)c2nc(CNC3CCCNC3=O)cc(O)c2c1 (stereo not shown),17.9,12.71
NC(=O)CN1CC2(CCC1=O)CCN(C(=O)c1ccccc1F)CC2,2.229,4.816
Cc1ccc(N2CCc3ncnc(C4CC4)c3CC2)nn1,-10.77,6.753
CC(C)c1nn(C)cc1CNC1CCOc2ccccc21.Cl (stereo not shown),-5.42,-
COCc1cccc(NCc2cccnc2)c1,-4.444,5.42
CC(C)n1cnc2c1C(C(=O)NCCO)N(Cc1ccccc1)CC2 (stereo not shown),-,7.407
Cn1cccc1C(=O)N1CCC2(CC1)CN(S(C)(=O)=O)c1ccccc12,-13.74,6.723
Cc1cc(F)ccc1N1CCCC(NC(=O)CCCn2ccnc2)C1 (stereo not shown),-6.382,7.43
c1cnc2nc(N3CCCC3c3nnc4n3CCCCC4)ccc2n1 (stereo not shown),0.4939,1.897
CN(C)C(=O)CNC(=O)c1ccn(-c2ccc3ccccn23)n1,-0.6393,7.19
O=C(NC[C@H]1C[C@@H]2CCN1C[C@@H]2CN1CCOCC1)Nc1ccccc1,-,6.593
COc1cc(N2CC[C@@H](OC)[C@@H]2Cc2ccccc2)ncn1,-11.96,12.33
CC(C)c1nc(C(=O)N2CCCC(n3cncn3)C2)c[nH]1 (stereo not shown),-7.309,19.44
CCn1c(C)nnc1CN(C)C1CCN(Cc2c(C)noc2C)C1 (stereo not shown),18.51,7.829
CN1CCOC(C(=O)Nc2nnc(Cc3ccc(F)cc3)[nH]2)C1 (stereo not shown),-18.12,-0.8357
O=C(NCc1cccs1)[C@]12COC[C@H]1CN(c1ncccn1)C2,-,6.569
O=C(COCC1CCCCO1)N1CCN(Cc2ccccc2F)C(=O)C1 (stereo not shown),-24.88,4.267
Cc1cnc2c(c1)N(C(=O)c1ccc(=O)n(C)c1)CCO2,2.221,6.684
CN1CCC(N(CCc2ccccc2)Cc2noc(C3CC3)n2)CC1,-17.07,8.04
Cc1cc(C)n(CC2CCCCN2C(=O)c2ccc3c(c2)COC3)n1 (stereo not shown),-24.07,16.47

Repeated from the top, 8 entries:

* c1ccc(OCCN2CCCC(c3noc(C4CC4)n3)C2)cc1 (stereo not shown) : Mtb heat-shock: 9.972%; LdMetRS: 8.78%
* COc1cccc(NC(=O)CN(C(C)C)C2CC2)c1 : Mtb heat-shock: -26.58%; LdMetRS: 11.85%
* CC(C)c1nccn1CCC(=O)N1CCCCC1c1ccn[nH]1 (stereo not shown) : Mtb heat-shock: -2.449%; LdMetRS: 1.869%
* Cc1ccc(N2CCCC(NC(=O)Cc3csc(C)n3)C2=O)cc1 (stereo not shown) : Mtb heat-shock: 17.82%; LdMetRS: 7.796%
* CCCC(C(=O)NC1CCN(S(C)(=O)=O)CC1)n1cccc1 (stereo not shown) : Mtb heat-shock: -2.413%; LdMetRS: 12.63%
* O=C(O)C(F)(F)F.O=C(O)C(F)(F)F.[H][C@@]12CCCO[C@]1([H])[C@H](Oc1ncccc1F)CN2Cc1ccccn1 : Mtb heat-shock: -39.2%
* Cc1cc(C)c2c(N3CCCN(C(=O)C4CCC4)CC3)ncnc2n1 : Mtb heat-shock: -11.03%; LdMetRS: 22.12%
* O=C(CCCOc1ccccc1)N1CCCC(n2cncn2)C1 (stereo not shown) : Mtb heat-shock: 1.416%; LdMetRS: 10.22%

Source: ChEMBL document CHEMBL3988442, “University of Dundee, Small-Polar-MMV Screening Library” (2021).